Laboratory results as given in PubChem BioAssay AID2318 (National Center for Advancing Translational Sciences (NCATS), 2010).
Inconclusive means that the source gave no clear call. Such entries were picked first, then a sample of the others. Potencies of inconclusive entries are doubtful fits and often do not repeat. The source made the active and inactive calls. Calls follow the shape of the full dose curve.

Assay: Cycloheximide Counterscreen for Small Molecule Inhibitors of Shiga Toxin (Confirmatory); as to activity (activation): 0% is about no effect
Details: protein synthesis reporter, Shiga toxin assay; series mostly up to 38.3 µM; activity (activation): at the top concentration
Potency is read from the fitted curve at half-maximal effect.

SMILES	Potency	activity (activation)
COc1cc(/C=C(\C#N)c2nc3ccccc3[nH]2)cc(OC)c1O	inconclusive: 11.3 µM [activator, partial curve, poor fit]	
O=C(Nc1cccc(-c2csc(Nc3ccc(Cl)cc3)n2)c1)c1ccccc1	inconclusive: 15.9 µM [activator, partial curve, poor fit]	
O=C(O)c1cc(S(=O)(=O)Nc2ccc(OCc3ccccc3)cc2)ccc1Br	inconclusive: 31.8 µM [activator, partial curve, poor fit]	
CCOC(=O)C1CCCN(C(=O)c2cc(Nc3ccc(OC)c(OC)c3)nc3ccccc23)C1 (stereo unspecified)		inactive: 4.22%
COc1ccccc1C(=O)Nc1nnc(SCC(=O)Nc2ccc3c(c2)oc2ccccc23)s1	active: 11.3 µM	
CCc1ccc(NC(=O)c2cnc(N3CCN(c4ccccn4)CC3)c3ccccc23)cc1		inactive: 2.38%
Cc1cc(C)c2nc(-c3ccccn3)cc(C(=O)NCc3ccco3)c2c1	inconclusive: 22.5 µM [activator, single point]	
CCOC(=O)/C(C(=O)Nc1ccc(Br)cc1)=C1/NC(C)(C)Cc2ccccc21	inconclusive: 12.6 µM [activator, partial curve, poor fit]	
Cc1ccc(Cl)cc1NC(=O)COC(=O)c1ccc(COc2ccc3c(C)cc(=O)oc3c2)cc1		inactive: 2.39%
Cc1cccc(C(=O)Nc2nnc(SCC(=O)NC3CC3)s2)c1	inconclusive: 8.95 µM [activator, partial curve, poor fit]	
O=C(CSCc1ccccc1)N1CCN(C(=O)c2ccco2)CC1	inconclusive: 17.9 µM [activator, partial curve, poor fit]	
COc1cc(C(C)=O)ccc1OCCCOc1cccc2cccnc12	inconclusive: 22.5 µM [activator, partial curve, poor fit]	
COC(=O)c1ccc(COc2ccc(C3C4=C(CCCC4=O)Nc4onc(C)c43)cc2)cc1 (stereo unspecified)	inconclusive: 20 µM [activator, partial curve, poor fit]	
COc1cc2c(c(OC)c1OC)-c1c(cc(OC)c(OC)c1OC)CC(C)C(C)C2 (stereo unspecified)		inactive: 1.6%
COC(=O)c1c(NC(=O)c2ccn(C)n2)sc2c1CCC2	inconclusive: 20 µM [activator, partial curve, poor fit]	
Cc1cccc(N2CCN(C(=O)Cc3ccc(Br)cc3)CC2)c1C	inconclusive: 20 µM [activator, single point]	

SMILES	Potency	activity (activation)
Cc1sc(NC(=O)CCCC(=O)O)c(C(N)=O)c1-c1ccccc1	inconclusive: 12.6 µM [activator, partial curve, poor fit]	
CCOC(=O)c1c(C)[nH]c(C2=NNC(=NC3CC3)SC2)c1C	active: 0.0504 µM	
Cc1nnc(NC(=O)C2COc3ccccc3O2)s1 (stereo unspecified)	inconclusive: 12.6 µM [activator, partial curve]	
O=C(NCCc1ccccc1)C1CCCN1S(=O)(=O)c1ccccc1 (stereo unspecified)		inactive: 4.29%
CC(C)NC(=O)c1ccc(OC2CSC2)cc1	inconclusive: 25.2 µM [activator, partial curve, poor fit]	
O=C/C=C/c1ccccc1	inconclusive: 20 µM [activator, partial curve, poor fit]	
CC(C)CN1CCN(C(=O)CCc2nnc(Cc3c[nH]c4ccccc34)o2)[C@@H](C)C1=O	inconclusive: 22.5 µM [activator, partial curve, poor fit]	
COC(=O)c1ccc(-c2ncc(-c3cccc4ccccc34)o2)cc1	active: 10 µM	
Cc1cc(C(=O)COC(=O)c2cccn2C)c(C)n1Cc1ccco1	active: 0.711 µM	
CCNc1nnc(-c2ccccc2OC)s1		inactive: 3.53%
COc1ccccc1NC(=O)Nc1cc(F)ccc1F	inconclusive: 12.6 µM [activator, partial curve, poor fit]	
O=C(NCC1CCCO1)Nc1ccc2c(c1)OCO2 (stereo unspecified)	inconclusive: 20 µM [activator, partial curve]	
O=C(Cc1cccs1)Nc1ccc(-c2nnc(-c3ccco3)o2)cc1	inconclusive: 5.65 µM [activator, full curve]	
CCOC(=O)c1cnc2c(-c3cccc(Br)c3)cnn2c1C	active: 2.83 µM	
O=C(NCc1ccco1)c1noc2c1CCCC2	inconclusive: 20 µM [activator, partial curve, poor fit]	

6 entries from above, in markdown.

| SMILES | Potency | activity (activation) |
| --- | --- | --- |
| CCOC(=O)C1CCCN(C(=O)c2cc(Nc3ccc(OC)c(OC)c3)nc3ccccc23)C1 (stereo unspecified) |  | inactive: 4.22% |
| Cc1cccc(C(=O)Nc2nnc(SCC(=O)NC3CC3)s2)c1 | inconclusive: 8.95 µM [activator, partial curve, poor fit] |  |
| Cc1cccc(N2CCN(C(=O)Cc3ccc(Br)cc3)CC2)c1C | inconclusive: 20 µM [activator, single point] |  |
| Cc1sc(NC(=O)CCCC(=O)O)c(C(N)=O)c1-c1ccccc1 | inconclusive: 12.6 µM [activator, partial curve, poor fit] |  |
| CCOC(=O)c1c(C)[nH]c(C2=NNC(=NC3CC3)SC2)c1C | active: 0.0504 µM |  |
| CCNc1nnc(-c2ccccc2OC)s1 |  | inactive: 3.53% |
